The list shows a part of the results. Single values are uncertain, as repeats are few or missing.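 Imaging used 1,536-well plates; nuclei positive for cleaved PARP by antibody were divided by total DNA-stained nuclei to yield the apoptosis fraction. Doses for screening kept most cells viable, and cell lines differ markedly in resting and induced cleaved-PARP levels.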
These compounds were tested on SkMel5 (assay: cleaved PARP positive nuclei fraction relative to DMSO control; melanoma cells; higher = more apoptosis). Settings: library dose: low library concentration; 72 h.
With O=C(Nc1ccccc1)c1cc([N+](=O)[O-])ccc1Cl + O=S(=O)(c1ccccc1)N(CC(F)(F)F)c1ccc(C(O)(C(F)(F)F)C(F)(F)F)cc1 [T0901317] (first compound 2 µM, partner dose 1.4 µM) the “cleaved PARP positive nuclei fraction” value was 36.1%. CN(C)S(=O)(=O)c1ccc2c(c1)/C(=C/c1cc3c([nH]1)CCCC3)C(=O)N2 + NCC(=O)Nc1ccc(-n2nc(C(F)(F)F)cc2-c2ccc3c(ccc4ccccc43)c2)cc1 [OSU03012] (first compound 0.4 µM, partner dose 1 µM) was tested, and the “cleaved PARP positive nuclei fraction” value was 140%. With N#Cc1c(O)c2c(-c3ccc(-c4ccccc4O)cc3)csc2[nH]c1=O + O=S(=O)(c1ccccc1)N(CC(F)(F)F)c1ccc(C(O)(C(F)(F)F)C(F)(F)F)cc1 [T0901317] (first compound 2 µM, partner dose 1.4 µM) the “cleaved PARP positive nuclei fraction” value was 141%. For NCC(=O)Nc1ccc(-n2nc(C(F)(F)F)cc2-c2ccc3c(ccc4ccccc43)c2)cc1 + COc1cc2c(Oc3ccc4[nH]c(C)cc4c3F)ncnc2cc1OCCCN1CCCC1 [cediranib] (first compound 1 µM, partner dose 0.4 µM), the “cleaved PARP positive nuclei fraction” value was 149%. In the case of CN(NC(=O)CC(=O)NN(C)C(=S)c1ccccc1)C(=S)c1ccccc1 + c1cc(-c2cnn3cc(-c4ccc(OCCN5CCCCC5)cc4)cnc23)ccn1 [Dorsomorphin] (first compound 0.006 µM, partner dose 0.4 µM), the “cleaved PARP positive nuclei fraction” value is reported as 95.8%. In the case of COc1cc2c(Oc3ccc4[nH]c(C)cc4c3F)ncnc2cc1OCCCN1CCCC1 [cediranib] + c1cc(-c2cnn3cc(-c4ccc(OCCN5CCCCC5)cc4)cnc23)ccn1 [Dorsomorphin] (first compound 0.4 µM, partner dose 0.4 µM), the “cleaved PARP positive nuclei fraction” value is reported as 152%. In the case of CN(NC(=O)CC(=O)NN(C)C(=S)c1ccccc1)C(=S)c1ccccc1 + N#Cc1c(O)c2c(-c3ccc(-c4ccccc4O)cc3)csc2[nH]c1=O [A769662] (first compound 0.006 µM, partner dose 2 µM), the “cleaved PARP positive nuclei fraction” value is reported as 92.9%. In the case of O=C(O)c1ccc(-c2c[nH]c3ncc(-c4ccccc4)cc23)cc1C1CCCC1 + CN(NC(=O)CC(=O)NN(C)C(=S)c1ccccc1)C(=S)c1ccccc1 [STA4783] (first compound 0.16 µM, partner dose 0.006 µM), the “cleaved PARP positive nuclei fraction” value is reported as 310%. For CN(C)S(=O)(=O)c1ccc2c(c1)/C(=C/c1cc3c([nH]1)CCCC3)C(=O)N2 + CC(C)CCN1c2nc(Nc3cc(F)c(O)c(F)c3)ncc2N(C)C(=O)C1C [BID1870] (first compound 0.4 µM, partner dose 0.2 µM), the “cleaved PARP positive nuclei fraction” value was 63%. With CN(NC(=O)CC(=O)NN(C)C(=S)c1ccccc1)C(=S)c1ccccc1 + COc1cc2c(Oc3ccc4[nH]c(C)cc4c3F)ncnc2cc1OCCCN1CCCC1 [cediranib] (first compound 0.006 µM, partner dose 0.4 µM) the “cleaved PARP positive nuclei fraction” value was 35.8%. With COC(=O)c1sccc1S(=O)(=O)Nc1ccc(Nc2ccccc2)cc1OC + COc1ccc(-c2ccc3c(N4CCOCC4)nc(N4C[C@@H](C)O[C@@H](C)C4)nc3n2)cc1CO [KU0063794] (first compound 1 µM, partner dose 0.02 µM) the “cleaved PARP positive nuclei fraction” value was 29.5%. In the case of COc1ccc2c(c1)CCC1C2CCC2(C)C(NCCCCCCN3C(=O)C=CC3=O)CCC12 (stereo not given) + COc1cc(N2CCC(N3CCN(C)CC3)CC2)ccc1Nc1ncc(Cl)c(Nc2ccccc2S(=O)(=O)C(C)C)n1 [NVP-TAE684] (first compound 0.4 µM, partner dose 0.08 µM), the “cleaved PARP positive nuclei fraction” value is reported as 59%. With O=C(O)C(=O)Nc1sc2c(c1C(=O)O)CCNC2 + COc1cc(N2CCC(N3CCN(C)CC3)CC2)ccc1Nc1ncc(Cl)c(Nc2ccccc2S(=O)(=O)C(C)C)n1 [NVP-TAE684] (first compound 1.66667 µM, partner dose 0.08 µM) the “cleaved PARP positive nuclei fraction” value was 64%. For CCCCCCCCCCCC1=C(O)C(=O)C=C(O)C1=O [Embelin] + O=c1cc(-c2cccc3c2Sc2ccccc2S3)oc(N2CCOCC2)c1 [KU55933] (first compound 1.2 µM, partner dose 1 µM), the “cleaved PARP positive nuclei fraction” value was 35.2%. For COc1cc2ncnc(Nc3ccc(Oc4ccccc4)cc3)c2cc1OC + CC(C)CCN1c2nc(Nc3cc(F)c(O)c(F)c3)ncc2N(C)C(=O)C1C [BID1870] (first compound 2 µM, partner dose 0.2 µM), the “cleaved PARP positive nuclei fraction” value was 113%.
